Results as given in the supplement of paper PMC6411743.
± gives the standard deviation of the averaged measurements. Only a part is listed here, and it is no random draw. Most values lie at the level of the controls, where differences are scatter.

By UniProt entry, the sequences of proteins in these tests, tags left out. Where a name states a change or a piece, a line headed by the entry shows the natural chain unless it says otherwise.
UniProt Q06945: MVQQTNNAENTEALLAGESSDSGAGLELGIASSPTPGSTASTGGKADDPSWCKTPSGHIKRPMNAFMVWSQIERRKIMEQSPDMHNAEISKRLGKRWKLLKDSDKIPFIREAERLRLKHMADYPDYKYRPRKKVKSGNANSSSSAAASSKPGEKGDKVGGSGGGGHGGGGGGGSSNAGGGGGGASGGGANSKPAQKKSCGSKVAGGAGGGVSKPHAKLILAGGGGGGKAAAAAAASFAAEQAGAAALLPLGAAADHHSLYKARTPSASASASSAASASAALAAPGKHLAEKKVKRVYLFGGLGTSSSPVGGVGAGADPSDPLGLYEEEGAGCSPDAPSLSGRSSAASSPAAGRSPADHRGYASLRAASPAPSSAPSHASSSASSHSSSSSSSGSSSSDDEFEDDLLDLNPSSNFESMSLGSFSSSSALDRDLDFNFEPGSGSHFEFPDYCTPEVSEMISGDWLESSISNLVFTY
UniProt Q13907: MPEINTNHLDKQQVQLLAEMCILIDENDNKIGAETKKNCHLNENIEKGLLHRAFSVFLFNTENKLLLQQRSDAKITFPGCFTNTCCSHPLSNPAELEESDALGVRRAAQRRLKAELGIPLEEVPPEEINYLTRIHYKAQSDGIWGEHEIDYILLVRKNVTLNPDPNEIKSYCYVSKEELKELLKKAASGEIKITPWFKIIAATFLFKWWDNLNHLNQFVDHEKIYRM
UniProt Q12996: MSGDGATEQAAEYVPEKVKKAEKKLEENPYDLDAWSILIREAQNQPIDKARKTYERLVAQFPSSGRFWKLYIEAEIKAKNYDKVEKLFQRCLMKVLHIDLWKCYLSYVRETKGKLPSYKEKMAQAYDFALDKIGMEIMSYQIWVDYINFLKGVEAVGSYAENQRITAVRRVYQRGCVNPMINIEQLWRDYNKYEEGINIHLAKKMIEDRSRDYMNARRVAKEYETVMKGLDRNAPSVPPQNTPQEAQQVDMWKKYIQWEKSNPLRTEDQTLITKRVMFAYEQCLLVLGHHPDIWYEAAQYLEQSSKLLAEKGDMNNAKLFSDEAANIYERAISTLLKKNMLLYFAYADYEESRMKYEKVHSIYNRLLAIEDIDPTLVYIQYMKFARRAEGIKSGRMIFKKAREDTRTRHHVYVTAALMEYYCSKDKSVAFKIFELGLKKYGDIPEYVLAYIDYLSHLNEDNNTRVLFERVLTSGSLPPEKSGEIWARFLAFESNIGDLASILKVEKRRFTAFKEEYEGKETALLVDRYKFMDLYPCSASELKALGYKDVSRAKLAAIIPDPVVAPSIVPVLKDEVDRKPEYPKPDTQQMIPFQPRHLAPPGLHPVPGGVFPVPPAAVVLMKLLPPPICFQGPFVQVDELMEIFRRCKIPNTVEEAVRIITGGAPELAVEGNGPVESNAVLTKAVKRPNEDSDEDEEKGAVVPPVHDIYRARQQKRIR
UniProt Q13427: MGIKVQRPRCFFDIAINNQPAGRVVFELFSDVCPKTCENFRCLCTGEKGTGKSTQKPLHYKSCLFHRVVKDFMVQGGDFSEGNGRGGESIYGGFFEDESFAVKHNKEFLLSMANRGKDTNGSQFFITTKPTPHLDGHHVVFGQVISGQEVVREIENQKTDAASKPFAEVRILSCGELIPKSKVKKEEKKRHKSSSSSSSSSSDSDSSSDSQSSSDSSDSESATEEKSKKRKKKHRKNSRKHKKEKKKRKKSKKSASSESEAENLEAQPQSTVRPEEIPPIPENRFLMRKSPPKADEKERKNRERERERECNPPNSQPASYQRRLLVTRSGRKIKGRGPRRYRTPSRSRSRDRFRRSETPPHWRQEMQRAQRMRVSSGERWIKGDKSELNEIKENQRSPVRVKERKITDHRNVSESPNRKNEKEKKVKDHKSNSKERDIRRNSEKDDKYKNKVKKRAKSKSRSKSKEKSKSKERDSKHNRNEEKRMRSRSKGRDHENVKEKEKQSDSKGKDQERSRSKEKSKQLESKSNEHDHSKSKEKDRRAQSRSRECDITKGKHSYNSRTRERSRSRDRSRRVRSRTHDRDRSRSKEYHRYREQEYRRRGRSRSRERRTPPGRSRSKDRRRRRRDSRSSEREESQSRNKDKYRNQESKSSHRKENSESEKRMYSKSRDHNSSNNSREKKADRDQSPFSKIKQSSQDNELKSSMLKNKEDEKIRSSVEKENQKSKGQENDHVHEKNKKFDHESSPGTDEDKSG
UniProt Q13049: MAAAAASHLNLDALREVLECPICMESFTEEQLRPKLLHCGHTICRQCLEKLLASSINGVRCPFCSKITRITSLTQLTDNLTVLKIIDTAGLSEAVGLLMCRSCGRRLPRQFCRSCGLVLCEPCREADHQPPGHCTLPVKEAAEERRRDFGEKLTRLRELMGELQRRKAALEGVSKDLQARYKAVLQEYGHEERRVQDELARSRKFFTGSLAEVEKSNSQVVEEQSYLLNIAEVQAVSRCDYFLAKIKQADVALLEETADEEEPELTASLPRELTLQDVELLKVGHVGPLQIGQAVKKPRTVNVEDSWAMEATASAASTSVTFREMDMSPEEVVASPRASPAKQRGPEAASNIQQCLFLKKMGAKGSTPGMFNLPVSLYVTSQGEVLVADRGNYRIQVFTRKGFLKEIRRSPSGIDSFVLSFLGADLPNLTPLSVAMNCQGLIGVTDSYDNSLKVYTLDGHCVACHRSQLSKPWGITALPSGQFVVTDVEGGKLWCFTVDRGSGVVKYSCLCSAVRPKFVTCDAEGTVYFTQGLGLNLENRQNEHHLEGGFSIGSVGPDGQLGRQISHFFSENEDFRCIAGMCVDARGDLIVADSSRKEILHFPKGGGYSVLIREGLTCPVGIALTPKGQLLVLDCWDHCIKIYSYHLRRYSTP
UniProt Q00722, whole entry: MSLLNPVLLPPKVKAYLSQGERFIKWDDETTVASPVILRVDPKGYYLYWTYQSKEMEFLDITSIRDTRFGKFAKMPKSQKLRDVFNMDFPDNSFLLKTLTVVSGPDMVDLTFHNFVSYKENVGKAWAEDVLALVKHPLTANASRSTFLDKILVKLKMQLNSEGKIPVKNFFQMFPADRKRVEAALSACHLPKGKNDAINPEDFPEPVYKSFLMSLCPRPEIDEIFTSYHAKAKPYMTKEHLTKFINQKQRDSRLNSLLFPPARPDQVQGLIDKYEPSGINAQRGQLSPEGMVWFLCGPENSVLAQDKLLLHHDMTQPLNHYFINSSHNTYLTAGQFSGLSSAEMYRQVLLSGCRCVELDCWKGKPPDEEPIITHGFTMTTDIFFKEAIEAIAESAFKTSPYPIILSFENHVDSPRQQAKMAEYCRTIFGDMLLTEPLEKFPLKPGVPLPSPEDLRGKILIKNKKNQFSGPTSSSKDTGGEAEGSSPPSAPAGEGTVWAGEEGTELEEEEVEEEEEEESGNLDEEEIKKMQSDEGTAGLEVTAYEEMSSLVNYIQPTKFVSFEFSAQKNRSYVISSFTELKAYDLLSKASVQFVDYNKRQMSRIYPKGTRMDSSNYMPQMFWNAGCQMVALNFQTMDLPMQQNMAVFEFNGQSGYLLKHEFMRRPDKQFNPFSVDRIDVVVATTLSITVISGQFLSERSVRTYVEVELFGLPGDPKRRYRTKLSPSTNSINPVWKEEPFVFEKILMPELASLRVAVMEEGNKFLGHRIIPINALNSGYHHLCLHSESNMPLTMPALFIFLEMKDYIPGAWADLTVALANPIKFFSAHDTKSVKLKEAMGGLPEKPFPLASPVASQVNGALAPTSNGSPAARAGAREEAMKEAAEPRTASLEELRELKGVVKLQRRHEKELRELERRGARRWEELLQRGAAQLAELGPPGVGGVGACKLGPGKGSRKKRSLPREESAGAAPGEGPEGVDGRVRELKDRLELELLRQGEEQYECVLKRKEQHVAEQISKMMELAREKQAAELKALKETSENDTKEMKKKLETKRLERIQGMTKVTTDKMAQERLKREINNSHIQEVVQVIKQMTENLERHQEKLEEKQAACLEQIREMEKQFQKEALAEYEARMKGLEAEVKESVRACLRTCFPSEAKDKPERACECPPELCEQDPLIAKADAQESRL
UniProt Q01085: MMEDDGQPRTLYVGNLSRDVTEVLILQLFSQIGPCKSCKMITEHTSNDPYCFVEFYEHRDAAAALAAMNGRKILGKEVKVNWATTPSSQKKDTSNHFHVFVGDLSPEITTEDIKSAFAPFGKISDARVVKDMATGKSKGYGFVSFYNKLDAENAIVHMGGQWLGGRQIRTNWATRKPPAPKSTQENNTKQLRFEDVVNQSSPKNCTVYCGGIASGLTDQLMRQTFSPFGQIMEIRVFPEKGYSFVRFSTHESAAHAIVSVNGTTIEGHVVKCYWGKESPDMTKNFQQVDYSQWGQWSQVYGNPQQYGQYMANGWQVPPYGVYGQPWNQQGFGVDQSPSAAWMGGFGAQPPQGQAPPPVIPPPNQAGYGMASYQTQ
UniProt Q13243: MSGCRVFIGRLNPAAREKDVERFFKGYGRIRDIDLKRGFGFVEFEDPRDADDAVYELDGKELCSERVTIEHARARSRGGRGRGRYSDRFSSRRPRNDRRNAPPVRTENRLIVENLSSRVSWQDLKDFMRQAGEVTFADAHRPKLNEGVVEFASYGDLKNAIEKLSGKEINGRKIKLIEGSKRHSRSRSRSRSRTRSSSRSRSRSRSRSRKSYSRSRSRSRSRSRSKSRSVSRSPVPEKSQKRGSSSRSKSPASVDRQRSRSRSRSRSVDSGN
UniProt Q01196, whole entry: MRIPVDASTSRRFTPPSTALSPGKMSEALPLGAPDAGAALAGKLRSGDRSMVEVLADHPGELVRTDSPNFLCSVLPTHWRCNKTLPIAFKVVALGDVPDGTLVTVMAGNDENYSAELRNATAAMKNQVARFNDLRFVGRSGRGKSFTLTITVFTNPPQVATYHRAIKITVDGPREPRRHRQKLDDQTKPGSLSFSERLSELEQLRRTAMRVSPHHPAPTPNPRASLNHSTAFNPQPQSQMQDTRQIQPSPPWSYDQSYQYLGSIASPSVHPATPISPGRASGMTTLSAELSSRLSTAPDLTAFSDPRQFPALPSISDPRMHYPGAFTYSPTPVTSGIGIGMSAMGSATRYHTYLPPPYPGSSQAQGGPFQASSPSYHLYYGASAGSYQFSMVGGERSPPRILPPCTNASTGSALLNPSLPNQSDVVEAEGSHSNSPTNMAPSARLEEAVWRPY
UniProt Q01459: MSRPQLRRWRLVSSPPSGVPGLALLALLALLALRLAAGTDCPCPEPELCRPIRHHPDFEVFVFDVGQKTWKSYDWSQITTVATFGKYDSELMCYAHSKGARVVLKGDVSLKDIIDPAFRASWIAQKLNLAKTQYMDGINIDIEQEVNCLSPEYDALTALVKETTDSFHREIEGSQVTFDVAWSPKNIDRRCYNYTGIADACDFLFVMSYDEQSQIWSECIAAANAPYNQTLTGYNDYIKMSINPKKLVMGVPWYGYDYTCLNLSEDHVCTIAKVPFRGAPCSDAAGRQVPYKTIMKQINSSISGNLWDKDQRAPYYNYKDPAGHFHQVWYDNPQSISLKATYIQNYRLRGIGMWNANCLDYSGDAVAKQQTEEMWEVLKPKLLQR
UniProt Q13825: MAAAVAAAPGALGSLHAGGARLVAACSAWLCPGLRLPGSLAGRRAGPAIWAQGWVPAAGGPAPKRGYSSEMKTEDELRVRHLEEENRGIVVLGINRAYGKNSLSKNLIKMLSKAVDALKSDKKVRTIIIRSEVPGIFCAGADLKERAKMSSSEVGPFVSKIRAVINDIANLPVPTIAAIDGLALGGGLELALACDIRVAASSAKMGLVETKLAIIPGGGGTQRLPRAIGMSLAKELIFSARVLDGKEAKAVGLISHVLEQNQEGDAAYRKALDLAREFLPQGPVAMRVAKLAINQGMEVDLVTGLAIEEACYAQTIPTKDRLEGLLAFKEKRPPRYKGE
UniProt Q13601: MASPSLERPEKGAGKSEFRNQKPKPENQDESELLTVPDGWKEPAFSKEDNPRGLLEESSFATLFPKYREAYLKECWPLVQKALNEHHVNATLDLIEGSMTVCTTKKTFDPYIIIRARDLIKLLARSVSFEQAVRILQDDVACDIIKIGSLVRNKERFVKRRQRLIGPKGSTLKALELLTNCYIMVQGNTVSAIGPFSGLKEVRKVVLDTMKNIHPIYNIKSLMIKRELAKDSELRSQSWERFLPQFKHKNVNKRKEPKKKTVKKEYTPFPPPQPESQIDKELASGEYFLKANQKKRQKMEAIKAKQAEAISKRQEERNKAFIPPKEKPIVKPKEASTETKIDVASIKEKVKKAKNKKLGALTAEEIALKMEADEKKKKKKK
UniProt Q12981: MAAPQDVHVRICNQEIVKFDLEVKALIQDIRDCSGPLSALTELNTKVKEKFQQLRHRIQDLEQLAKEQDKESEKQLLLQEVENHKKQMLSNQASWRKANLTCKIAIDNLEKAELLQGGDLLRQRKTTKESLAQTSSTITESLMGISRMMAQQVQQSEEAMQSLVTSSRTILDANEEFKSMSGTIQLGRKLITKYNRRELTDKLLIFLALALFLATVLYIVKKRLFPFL
UniProt Q14061: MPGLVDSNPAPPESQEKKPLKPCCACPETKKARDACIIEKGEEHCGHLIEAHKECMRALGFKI

Compound: Nc1ncnc2c1ncn2[C@@H]1O[C@H](COP(=O)(O)OP(=O)(O)OP(=O)(O)O)[C@@H](O)[C@H]1O [adenosine triphosphate]
Experiment: NP40-soluble protein abundance relative to vehicle (solubility fold change) (ratio); higher = more soluble protein in presence of ATP
Method in brief: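 Crude Jurkat lysate, prepared by Dounce homogenisation, was exposed to eight concentrations from 0.1 to 10 mM for 10 min at room temperature and then 3 min at 37 °C. Solubilisation used 0.8% NP40 with benzonase for 60 min at 4 °C, followed by ultracentrifugation and TMT labelling of the supernatant for LC-MS/MS. After vsn normalisation of intensities, each value is the fold change against the detergent-processed vehicle within each replicate, across three independent experiments.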

Target	NP40-soluble protein abundance (concentration: 0.1mM)	NP40-soluble protein abundance (concentration: 0.5mM)	NP40-soluble protein abundance (concentration: 1mM)	NP40-soluble protein abundance (concentration: 2mM)	NP40-soluble protein abundance (concentration: 4mM)	NP40-soluble protein abundance (concentration: 6mM)	NP40-soluble protein abundance (concentration: 8mM)	NP40-soluble protein abundance (concentration: 10mM)
ALDH6A1 (UniProt Q02252)	1.02 ± 0.055	1.03 ± 0.044						
UniProt Q02543 and related entries	0.922 ± 0.11	0.947 ± 0.15						
SOX4 (UniProt Q06945)	0.947 ± 0.079	0.952 ± 0.046						
UniProt Q04724 and related entries	1.05 ± 0.045	1.02 ± 0.07						
UniProt Q13564 and related entries	1.02 ± 0.054	1.04 ± 0.032						
IDI1 (UniProt Q13907)	0.975 ± 0.022	0.972 ± 0.033						
DNAJC3 (UniProt Q13217)	1 ± 0.021	1 ± 0.045						
CSTF3 (UniProt Q12996)	1.027 ± 0.006	1.06 ± 0.043						
UniProt Q02809 and related entries	1.05 ± 0.025	1.07 ± 0.022						
PPIG (UniProt Q13427)	1.04 ± 0.091	1.44 ± 0.17	1.61 ± 0.22	1.69 ± 0.27	1.78 ± 0.32	1.99 ± 0.49	1.85 ± 0.43	1.95 ± 0.46
TRIM32 (UniProt Q13049)	0.968 ± 0.049	1.02 ± 0.053						
UniProt Q02447-3	0.968 ± 0.013	0.958 ± 0.024						
UniProt Q14139 and related entries	1.03 ± 0.066	1.02 ± 0.044						
TFAP4 (UniProt Q01664)	0.975 ± 0.077	0.921 ± 0.083						
UniProt Q06481 and related entries	0.915 ± 0.17	0.96 ± 0.17						
DSG2 (UniProt Q14126)	0.972 ± 0.056	0.951 ± 0.044						
UniProt Q13242	0.984 ± 0.093	1.09 ± 0.073						
UniProt Q12906 and related entries	0.987 ± 0.053	1.07 ± 0.071						
FOXK2 (UniProt Q01167)	0.994 ± 0.041	1 ± 0.042						
UniProt Q14103-3|Q14103-4|D6RF44	0.987 ± 0.024	0.982 ± 0.025						
NNT (UniProt Q13423)	1.03 ± 0.05	1.03 ± 0.037						

Single values from the results shown:
In NP40-soluble protein abundance (concentration: 0.1mM), UniProt Q02447-3 is listed with 0.968 ± 0.013
In NP40-soluble protein abundance (concentration: 0.1mM), TRIM32 (UniProt Q13049) is listed with 0.968 ± 0.049

Later entries:

Target	NP40-soluble protein abundance (concentration: 0.1mM)	NP40-soluble protein abundance (concentration: 0.5mM)	NP40-soluble protein abundance (concentration: 1mM)	NP40-soluble protein abundance (concentration: 2mM)	NP40-soluble protein abundance (concentration: 4mM)	NP40-soluble protein abundance (concentration: 6mM)	NP40-soluble protein abundance (concentration: 8mM)	NP40-soluble protein abundance (concentration: 10mM)
UniProt Q00722 and related entries	1 ± 0.025	0.975 ± 0.044						
PSMD2 (UniProt Q13200)	0.98 ± 0.04	0.956 ± 0.033						
UniProt Q01085 and related entries	1.04 ± 0.044	1.02 ± 0.072						
UniProt Q13247 and related entries	1.05 ± 0.059	1.64 ± 0.1	1.84 ± 0.25	1.98 ± 0.19	2 ± 0.21	2.28 ± 0.23	2.17 ± 0.17	2.15 ± 0.25
LRP1 (UniProt Q07954)	0.949 ± 0.078	0.966 ± 0.04						
UniProt Q13243	1.06 ± 0.026	1.4 ± 0.075	1.5 ± 0.12	1.63 ± 0.088	1.76 ± 0.12	1.95 ± 0.11	1.92 ± 0.13	1.98 ± 0.07
UniProt Q01196 and related entries	1.01 ± 0.029	1.06 ± 0.04	1.07 ± 0.026	1.08 ± 0.024	1.11 ± 0.016	1.17 ± 0.034	1.15 ± 0.028	1.21 ± 0.034
CTBS (UniProt Q01459)	0.983 ± 0.05	0.999 ± 0.014	0.951 ± 0.04	0.98 ± 0.028	0.939 ± 0.038	0.957 ± 0.038	0.932 ± 0.032	0.955 ± 0.013
AUH (UniProt Q13825)	1.02 ± 0.037	1.008 ± 0.0041	0.96 ± 0.062	0.979 ± 0.049	0.967 ± 0.035	0.93 ± 0.082	0.96 ± 0.055	0.973 ± 0.036
KRR1 (UniProt Q13601)	1.02 ± 0.014	1.13 ± 0.055	1.12 ± 0.012	1.16 ± 0.043	1.23 ± 0.066	1.27 ± 0.047	1.29 ± 0.026	1.42 ± 0.033
THOC5 (UniProt Q13769)	1.09 ± 0.044	1.48 ± 0.073	1.53 ± 0.054	1.68 ± 0.11	2.01 ± 0.17	2.23 ± 0.28	2.52 ± 0.27	2.52 ± 0.29
UniProt Q02880-2	1.08 ± 0.038	1.22 ± 0.035	1.28 ± 0.061	1.36 ± 0.045	1.57 ± 0.067	1.73 ± 0.13	1.99 ± 0.11	2.07 ± 0.057
UniProt Q06787-5|Q06787-6|Q06787-8|Q06787 and related entries	1.22 ± 0.15	1.11 ± 0.02	1.16 ± 0.14	1.27 ± 0.1	1.56 ± 0.17	1.83 ± 0.13	2.14 ± 0.19	2.48 ± 0.15
UniProt Q13137 and related entries	1 ± 0.03	1.02 ± 0.07	0.962 ± 0.033	0.968 ± 0.032	0.9319 ± 0.0066	0.986 ± 0.03	0.941 ± 0.012	0.948 ± 0.026
UniProt Q13642-1|Q13642-4|Q13642-5	1.01 ± 0.12	0.988 ± 0.078	0.979 ± 0.17	0.968 ± 0.11	0.956 ± 0.098	0.926 ± 0.091	0.979 ± 0.12	0.983 ± 0.064
TBL3 (UniProt Q12788)	1.01 ± 0.013	1.06 ± 0.056	1.15 ± 0.06	1.3 ± 0.04	1.58 ± 0.036	1.59 ± 0.11	1.89 ± 0.1	2.01 ± 0.089
UniProt Q03933-2|Q03933	1.02 ± 0.074	1.11 ± 0.1	0.912 ± 0.029	1.05 ± 0.065	1.05 ± 0.2	1.09 ± 0.17	1.04 ± 0.048	1.01 ± 0.051
FADD (UniProt Q13158)	0.992 ± 0.028	0.963 ± 0.14	1.1 ± 0.14	1.05 ± 0.05	1.06 ± 0.11	1.05 ± 0.046	1.06 ± 0.13	0.969 ± 0.11
UniProt Q13111 and related entries	0.993 ± 0.019	1.03 ± 0.065	0.987 ± 0.059	0.988 ± 0.028	0.97 ± 0.035	1.03 ± 0.031	0.977 ± 0.036	1.01 ± 0.036
BNIP1 (UniProt Q12981)	0.949 ± 0.089	0.959 ± 0.034	0.986 ± 0.051	0.983 ± 0.05	0.98 ± 0.07	1 ± 0.012	0.971 ± 0.049	0.932 ± 0.053
COX17 (UniProt Q14061)	0.96 ± 0.075	0.958 ± 0.039	0.938 ± 0.1	0.895 ± 0.074	0.92 ± 0.1	0.963 ± 0.033	0.859 ± 0.056	0.847 ± 0.023
